Source: PubChem BioAssay AID743121 (NCATS, 2013)

Screen: 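Knock-downs that sensitise breast cancer cells to camptothecin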 (primary screen)
System: MDA-MB-231 cells, a human breast cancer line
Reagent: single siRNA against human genes, 20 nM siRNA (0.8 pmol per well)
Timing: 120 h (drug added 48 h after transfection, read 72 h later)
Treatment: camptothecin 20 nM (about EC30) for 72 h; vehicle 0.1% DMSO in parallel plates
Detection: 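CellTiter-Glo ATP signal, scaled to control siRNA as percent viability; sensitisation given as log2 of untreated divided by camptothecin-treated viability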
Reading the numbers: log2 vehicle/camptothecin viability: higher = stronger sensitisation to camptothecin; viability with camptothecin and viability without drug: higher = more viable cells
Active means: 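Active genes have an RSA gene-level p-value below 0.001, computed from the ratios of their separate siRNAs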
This is one part, drawn at random, of about 26,000 reagents tested. In the full data, 167 (0.63%) got an active call. 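Calls are per gene from RSA p-values that are not deposited; an individual active-marked siRNA can sensitise only weakly.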 A number with no mark means an inactive call. Reagents against one gene are numbered here. No sequences are given here.

target | siRNA no. | log2 vehicle/camptothecin viability | viability with camptothecin (% of control) | viability without drug (% of control)
BACE1 (GeneID 23621) | 1 | -0.078 | 99.4 | 94.2
BACE1 (GeneID 23621) | 2 | -0.253 | 123 | 103
BACE1 (GeneID 23621) | 3 | 0.455 | 65.8 | 90.2
BACE1 (GeneID 23621) | 4 | 0.169 | 88.7 | 99.7
FCN1 (GeneID 2219) | 1 | -0.309 | 60.1 | 48.5
FCN1 (GeneID 2219) | 2 | -0.318 | 53.6 | 43
FCN1 (GeneID 2219) | 3 | -0.261 | 101 | 84.1
FCN1 (GeneID 2219) | 4 | 0.0243 | 76.7 | 78.1
ADCY7 (GeneID 113) | 1 | 0.0379 | 93.6 | 96.1
ADCY7 (GeneID 113) | 2 | -0.202 | 73.6 | 64
ADCY7 (GeneID 113) | 3 | -0.0181 | 94 | 92.8
ADCY7 (GeneID 113) | 4 | 0.333 | 28.2 | 35.5
CCT2 (GeneID 10576) | 1 | -0.139 | 66.2 | 60.1
CCT2 (GeneID 10576) | 2 | -0.442 | 46.3 | 34.1
CCT2 (GeneID 10576) | 3 | -0.471 | 65 | 46.9
CCT2 (GeneID 10576) | 4 | -1.76 | 28 | 8.25
SLC40A1 (GeneID 30061) | 1 | -0.223 | 105 | 90
SLC40A1 (GeneID 30061) | 2 | -0.386 | 53.2 | 40.7
SLC40A1 (GeneID 30061) | 3 | -0.51 | 105 | 74
SLC40A1 (GeneID 30061) | 4 | -0.181 | 58.5 | 51.6
SIRPA (GeneID 140885) | 1 | -0.0262 | 110 | 108
SIRPA (GeneID 140885) | 2 | 0.136 | 94 | 103
SIRPA (GeneID 140885) | 3 | -0.12 | 99.8 | 91.9
SIRPA (GeneID 140885) | 4 | -0.598 | 11.1 | 7.36
DAPK1 (GeneID 1612) | 1 | -0.414 | 71.6 | 53.7
DAPK1 (GeneID 1612) | 2 | -0.128 | 61.5 | 56.3
DAPK1 (GeneID 1612) | 3 | -0.424 | 57.2 | 42.6
DAPK1 (GeneID 1612) | 4 | 0.0568 | 89.7 | 93.4
UBR2 (GeneID 23304) | 1 | -0.116 | 87.2 | 80.5
UBR2 (GeneID 23304) | 2 | -0.308 | 48.4 | 39.1
UBR2 (GeneID 23304) | 3 | -0.655 | 73.8 | 46.9
TYMP (GeneID 1890) | 1 | -0.423 | 94 | 70.1
TYMP (GeneID 1890) | 2 | -0.364 | 85.7 | 66.6
TYMP (GeneID 1890) | 3 | -0.189 | 55.4 | 48.6
ERCC5 (GeneID 2073) | 1 | 0.0231 | 94.9 | 96.4
ERCC5 (GeneID 2073) | 2 | -0.422 | 54.6 | 40.7
ERCC5 (GeneID 2073) | 3 | -0.00646 | 101 | 101
ERCC5 (GeneID 2073) | 4 | -0.0587 | 88.8 | 85.3
AKAP4 (GeneID 8852) | 1 | -0.174 | 118 | 104
AKAP4 (GeneID 8852) | 2 | -0.243 | 110 | 92.8
AKAP4 (GeneID 8852) | 3 | -0.0135 | 53.8 | 53.3
AKAP4 (GeneID 8852) | 4 | -0.326 | 93.3 | 74.4
MCOLN2 (GeneID 255231) | 1 | -0.227 | 120 | 102
MCOLN2 (GeneID 255231) | 2 | -0.245 | 113 | 95.5
MCOLN2 (GeneID 255231) | 3 | 0.254 | 70.4 | 83.9
MCOLN2 (GeneID 255231) | 4 | -0.339 | 76.6 | 60.5
EN2 (GeneID 2020) | 1 | -0.037 | 96.6 | 94.1
EN2 (GeneID 2020) | 2 | -0.139 | 98.7 | 89.7
EN2 (GeneID 2020) | 3 | 0.0475 | 84 | 86.8
EN2 (GeneID 2020) | 4 | -0.298 | 86.4 | 70.2
CATSPER3 (GeneID 347732) | 1 | -0.189 | 103 | 90
CATSPER3 (GeneID 347732) | 2 | -0.181 | 102 | 90
CATSPER3 (GeneID 347732) | 3 | -0.00172 | 101 | 101
PDE6C (GeneID 5146) | 1 | 0.0287 | 76.3 | 77.9
PDE6C (GeneID 5146) | 2 | 0.417 | 76.3 | 102
PDE6C (GeneID 5146) | 3 | -0.268 | 115 | 95.5
UROD (GeneID 7389) | 1 | -0.0068 | 86.3 | 85.9
UROD (GeneID 7389) | 2 | -0.0892 | 62.8 | 59
UROD (GeneID 7389) | 3 | 0.0442 | 70.9 | 73.1
GABARAP (GeneID 11337) | 1 | -0.0845 | 101 | 95.6
GABARAP (GeneID 11337) | 2 | -0.202 | 27.1 | 23.6
GABARAP (GeneID 11337) | 3 | -0.0429 | 50.6 | 49.1
GABARAP (GeneID 11337) | 4 | -0.196 | 85.4 | 74.5
KCNMB4 (GeneID 27345) | 1 | -0.267 | 82.7 | 68.7
KCNMB4 (GeneID 27345) | 2 | -0.0742 | 66.4 | 63.1
KCNMB4 (GeneID 27345) | 3 | -0.248 | 88 | 74.1
KCNMB4 (GeneID 27345) | 4 | -0.444 | 42 | 30.9
AHR (GeneID 196) | 1 | -0.608 | 86.2 | 56.5
AHR (GeneID 196) | 2 | -0.0352 | 120 | 117
AHR (GeneID 196) | 3 | -0.46 | 72.5 | 52.7
AHR (GeneID 196) | 4 | 0.0952 | 113 | 120
NME2P1 (GeneID 283458) | 1 | -0.0097 | 31.2 | 31
LAMB1 (GeneID 3912) | 1 | -0.303 | 57.8 | 46.8
LAMB1 (GeneID 3912) | 2 | -0.051 | 14.6 | 14.1
LAMB1 (GeneID 3912) | 3 | -0.322 | 77.8 | 62.2
DGKH (GeneID 160851) | 1 | -0.0854 | 84.2 | 79.4
DGKH (GeneID 160851) | 2 | -0.0227 | 85.9 | 84.6
DGKH (GeneID 160851) | 3 | -0.981 | 68.9 | 34.9
DGKH (GeneID 160851) | 4 | -0.254 | 67.3 | 56.5
EMX2 (GeneID 2018) | 1 | 0.357 | 66.2 | 84.8
EMX2 (GeneID 2018) | 2 | 0.945 | 40.8 | 78.6
EMX2 (GeneID 2018) | 3 | -0.178 | 43.4 | 38.4
EMX2 (GeneID 2018) | 4 | -0.221 | 66.8 | 57.3
RIPK3 (GeneID 11035) | 1 | -0.13 | 64.9 | 59.3
RIPK3 (GeneID 11035) | 2 | -0.397 | 95.8 | 72.7
RIPK3 (GeneID 11035) | 3 | -0.444 | 101 | 74.5
RIPK3 (GeneID 11035) | 4 | -0.182 | 77.5 | 68.3
